# The list does not hold the whole screen: it is rich in T/C values a quarter to a half above the control, in often repeated tests (any T/C) and in doses without a T/C. Further doses and runs are listed elsewhere. T/C is the treated group as % of the vehicle group. Some doses have a count of surviving animals in place of a T/C: the source holds a T/C of zero for them, seemingly a mark for toxic or unscored doses. Some doses without a T/C left all or most animals alive at the check, yet need not have been tolerated: the source hardly ever lists a survival T/C far under the control, and the zero likely stands for such cases as well. Survivors were counted at the toxicity check, usually on the fifth day, unless a day is given; later deaths do not show. Schedule codes are those of the source, taken here to give the interval after Q, in days (D) or hours (H), and the number of doses after X. Where survival is the endpoint, this PubChem deposit counts one and a half times the control or more as active, and values a quarter to a half above the control carry no call in these data; other NCI protocols may use other cut-offs. Some doses were run more than once; the results are listed from low to high. Some T/C values carry the count of animals alive at the toxicity check (mostly the fifth day); without a count, all were alive then.
# Test system: P388 leukemia ip, CD2F1 mice, survival T/C
# Experiment: NCI In Vivo Anticancer Drug Screen. Data for tumor model P388 Leukemia (intraperitoneal) in CD2F1 (CDF1) mice
# Details: T/C endpoint: median survival time, higher T/C = longer survival
# [1] = dose: 400.0 mg/kg/injection, schedule: Q04DX003 (ip), vehicle: saline with Tween-80
# [2] = dose: 200.0 mg/kg/injection, schedule: Q01DX005 (ip), vehicle: Klucel (hydroxypropylcellulose) (HPC)
# [3] = dose: 200.0 mg/kg/injection, schedule: Q01DX009 (ip), vehicle: saline with Tween-80
# [4] = dose: 120.0 mg/kg/injection, schedule: Q01DX005 (ip), vehicle: saline with Tween-80
# [5] = dose: 240.0 mg/kg/injection, schedule: Q01DX005 (ip), vehicle: saline with Tween-80
# [6] = dose: 200.0 mg/kg/injection, schedule: Q01DX005 (ip), vehicle: saline with Tween-80
# [7] = dose: 100.0 mg/kg/injection, schedule: Q04DX003 (ip), vehicle: Klucel (hydroxypropylcellulose) (HPC)
# [8] = dose: 60.0 mg/kg/injection, schedule: Q01DX005 (ip), vehicle: saline with Tween-80
# [9] = dose: 50.0 mg/kg/injection, schedule: Q01DX005 (ip), vehicle: saline with Tween-80
# [10] = dose: 100.0 mg/kg/injection, schedule: Q01DX005 (ip), vehicle: saline with Tween-80
# [11] = dose: 6.25 mg/kg/injection, schedule: Q01DX009 (ip), vehicle: suspension in saline
compound,measurement,setting,value
N#CCCOCN(COCCC#N)c1nc(N(COCCC#N)COCCC#N)nc(N(COCCC#N)COCCC#N)n1,survivor count,"dose: 30.0 mg/kg/injection, schedule: Q01DX005 (ip), vehicle: DMSO",6 of 6
same,survivor count,"dose: 60.0 mg/kg/injection, schedule: Q01DX005 (ip), vehicle: DMSO",5 of 6
same,survivor count,"dose: 120.0 mg/kg/injection, schedule: Q01DX005 (ip), vehicle: DMSO",5 of 5
COc1ccc(NC(N)=S)cc1OC,survivor count,[1],4 of 6
Cc1cccc2nc(-c3ccccn3)n(CCc3ccccn3)c12,survivor count,[2],3 of 6
CCNCc1c(C)nc2ccc(N(C)C)cc2c1Cl,survivor count,"dose: 50.0 mg/kg/injection, schedule: Q01DX009 (ip), vehicle: saline with Tween-80",1 of 6
same,survivor count,"dose: 100.0 mg/kg/injection, schedule: Q01DX009 (ip), vehicle: saline with Tween-80",0 of 6
same,survivor count,[3],0 of 6
CCOC(=O)c1sc(N)c(C(=O)OCC)c1C,survivor count,[3],6 of 6
same,survivor count,"dose: 400.0 mg/kg/injection, schedule: Q01DX009 (ip), vehicle: saline with Tween-80",6 of 6
CCC(O)C1(OC)C=CC(OC)O1 (stereo not given),survivor count,"dose: 50.0 mg/kg/injection, schedule: Q01DX005 (ip), vehicle: saline",0 of 6
same,survivor count,"dose: 100.0 mg/kg/injection, schedule: Q01DX005 (ip), vehicle: saline",0 of 6
same,survivor count,"dose: 200.0 mg/kg/injection, schedule: Q01DX005 (ip), vehicle: saline",0 of 6
COC1N(Cc2ccccc2)C=C2C(=O)NC(=O)C3NC(c4ccccc4)C1(C)C23C (stereo not given),survivor count,"dose: 100.0 mg/kg/injection, schedule: Q01DX005 (ip), vehicle: Klucel (hydroxypropylcellulose) (HPC)",6 of 6
C=Cc1cc[n+](CC(=O)c2ccc(-c3ccccc3)cc2)cc1,survivor count,"dose: 100.0 mg/kg/injection, schedule: Q01DX009 (ip), vehicle: Klucel (hydroxypropylcellulose) (HPC)",0 of 6
CCCCn1c(C)nc2c(N)cc(C(F)(F)F)cc21,survivor count,"dose: 12.5 mg/kg/injection, schedule: Q01DX009 (ip), vehicle: Klucel (hydroxypropylcellulose) (HPC)",6 of 6
Fc1cccc(Cl)c1C(Nc1nncs1)Nc1nncs1,T/C,"dose: 60.0 mg/kg/injection, schedule: Q01DX005 (ip), vehicle: Klucel (hydroxypropylcellulose) (HPC)",128 and 130 % of control
same,T/C,"dose: 120.0 mg/kg/injection, schedule: Q01DX005 (ip), vehicle: Klucel (hydroxypropylcellulose) (HPC)",145 % of control [5 of 6 alive]
same,survivor count,"dose: 480.0 mg/kg/injection, schedule: Q01DX005 (ip), vehicle: Klucel (hydroxypropylcellulose) (HPC)",4 of 6
CC([NH-])C[NH-].[I][Pt+2][I] (stereo not given),T/C,"dose: 25.0 mg/kg/injection, schedule: Q04DX002 (ip), vehicle: saline with Tween-80",143 and 148 % of control
same,T/C,"dose: 50.0 mg/kg/injection, schedule: Q04DX002 (ip), vehicle: saline with Tween-80",141 and 143 % of control
CCc1nc(N)nc(N)c1-c1ccc(N(C)C2CCCCC2)c([N+](=O)[O-])c1,T/C,[4],127 % of control
same,T/C,[5],126 % of control
O=C1c2ccc(Cl)cc2OCCC1CN1CCCCC1 (stereo not given),survivor count,"dose: 400.0 mg/kg/injection, schedule: Q04DX003 (ip), vehicle: saline",0 of 6
Cc1ccnc(NS(=O)(=O)c2ccc(N=Nc3nc4[nH]c(N)nc(=S)c4[nH]3)cc2)n1,T/C,"dose: 0.39 mg/kg/injection, schedule: Q01DX009 (ip), vehicle: saline with Tween-80",126 % of control
same,T/C,"dose: 0.78 mg/kg/injection, schedule: Q01DX009 (ip), vehicle: saline with Tween-80",135 % of control
same,T/C,"dose: 1.56 mg/kg/injection, schedule: Q01DX009 (ip), vehicle: saline with Tween-80",149 % of control
same,T/C,"dose: 3.12 mg/kg/injection, schedule: Q01DX009 (ip), vehicle: saline with Tween-80",133 % of control
O=S1(=O)C=C(Cl)C2C3CC(C(Cl)C3Cl)C21 (stereo not given),survivor count,"dose: 60.0 mg/kg/injection, schedule: Q04DX003 (ip), vehicle: saline",3 of 6
COc1ccc2c(c1)-c1nn(CCO)c(-c3cccnc3)c1CC2,survivor count,"dose: 400.0 mg/kg/injection, schedule: Q04DX002 (ip), vehicle: DMSO",0 of 4
CCN(CC)C(=NC(C)C)c1ccccc1,survivor count,"dose: 50.0 mg/kg/injection, schedule: Q01DX009 (ip), vehicle: saline",0 of 6
same,survivor count,"dose: 100.0 mg/kg/injection, schedule: Q01DX009 (ip), vehicle: saline",0 of 6
same,survivor count,"dose: 200.0 mg/kg/injection, schedule: Q01DX009 (ip), vehicle: saline",0 of 6
N#Cc1ccc(NN=NCCCCl)cc1,survivor count,"dose: 200.0 mg/kg/injection, schedule: Q01DX005 (ip), vehicle: distilled water + Tween-80",0 of 6
same,survivor count,[6],0 of 6
CN=C(N)c1ccc(N=C(N)c2ccc(N=C(N)c3ccc(N=C(O)c4cccc(C(O)=Nc5ccc(C(N)=Nc6ccc(C(N)=Nc7ccc(C(N)=NC)cc7)cc6)cc5)c4)cc3)cc2)cc1,T/C,"dose: 100.0 mg/kg/injection, schedule: Q04DX003 (ip), vehicle: saline with Tween-80",127 % of control [4 of 6 alive]
same,survivor count,"dose: 200.0 mg/kg/injection, schedule: Q04DX003 (ip), vehicle: saline with Tween-80",0 of 6
same,survivor count,[1],0 of 6
Cc1ccc(OP(=O)(Oc2ccc(C)cc2)Oc2ccc(C)cc2)cc1.Cc1ccc(OP(=O)(Oc2ccc(C)cc2)Oc2ccc(C)cc2)cc1.[Cl][Ni][Cl],survivor count,"dose: 50.0 mg/kg/injection, schedule: Q04DX003 (ip), vehicle: Klucel (hydroxypropylcellulose) (HPC)",0 of 6
same,T/C,[7],"109, 116, 120 % of control"
same,survivor count,[7],0 of 6
same,survivor count,"dose: 200.0 mg/kg/injection, schedule: Q04DX003 (ip), vehicle: Klucel (hydroxypropylcellulose) (HPC)",5 of 6
same,survivor count,"dose: 400.0 mg/kg/injection, schedule: Q04DX003 (ip), vehicle: Klucel (hydroxypropylcellulose) (HPC)",0 of 6
CN=C1c2ccccc2C2(c3ccccc3)C1N2C (stereo not given),survivor count,[1],1 of 6
Nc1c(-c2nc3ccc(C4=NCCN4)cc3[nH]2)[nH]c2cc(-c3nc4ccc(C5=NCCN5)cc4[nH]3)ccc12,survivor count,[2],0 of 6
O=C(Nc1cc(-c2ccccc2)[nH]n1)c1ccccc1F,survivor count,[8],6 of 6
same,survivor count,[4],6 of 6
FC(F)(F)c1ccc(-c2ccc(OCCN3CCCC3)cc2)cc1,survivor count,"dose: 100.0 mg/kg/injection, schedule: Q04DX003 (ip), vehicle: saline sonified",6 of 6
same,survivor count,"dose: 200.0 mg/kg/injection, schedule: Q04DX003 (ip), vehicle: saline sonified",3 of 6
Cc1ccc2nc(C)cc(N=[N+]=[N-])c2c1,survivor count,[5],1 of 6
CCCCCCCCOc1ccc(/C=C/C(C)=N/NC(N)=NC)cc1OC,survivor count,[8],1 of 6
same,survivor count,[4],1 of 6
same,survivor count,[5],0 of 6
CCOC(=O)/C(C#N)=C/N1CCCC1,survivor count,[9],4 of 6
same,survivor count,[10],2 of 6
same,survivor count,[6],0 of 6
CCn1c(-c2c(Cl)cc(O)cc2Cl)cc2c(Cl)cc(O)cc21,survivor count,"dose: 240.0 mg/kg/injection, schedule: Q01DX005 (ip), vehicle: Klucel (hydroxypropylcellulose) (HPC)",0 of 6
CCC(=O)n1nc(Nc2ccccc2)c(C(=O)OC)c1C,survivor count,[9],6 of 6
same,survivor count,[10],6 of 6
O=Cc1cccc[n+]1Cc1ccc2c(c1)OCO2,survivor count,"dose: 100.0 mg/kg/injection, schedule: Q01DX009 (ip), vehicle: distilled water + Tween-80",0 of 6
same,survivor count,"dose: 200.0 mg/kg/injection, schedule: Q01DX009 (ip), vehicle: distilled water + Tween-80",0 of 6
same,survivor count,"dose: 400.0 mg/kg/injection, schedule: Q01DX009 (ip), vehicle: distilled water + Tween-80",0 of 6
Nc1nc(-c2ccccc2)nc(-c2ccccc2)n1,T/C,[11],125 % of control
same,survivor count,[11],6 of 6
same,survivor count,"dose: 25.0 mg/kg/injection, schedule: Q01DX009 (ip), vehicle: saline",6 of 6

# From PubChem BioAssay AID330 (DTP/NCI, 2004)
